In publication PMC7280298:
Results are given in words; binding and its absence hold for the method and conditions named. In cells and extracts the contact can be indirect. Binding calls can cover weak binding; strength is not graded here. Where a sequence is shown, tags or fusion partners need not be part of it. One block for each molecule: values may come before it.

How the values were obtained:
[1] = target: T1, 9xMyc-NRP1 (NAP1-RELATED PROTEIN 1, N-terminally 9xMyc-tagged) (Arabidopsis) (UniProt Q9CA59); test: co-IP; α-Myc immunoprecipitation of Myc-tagged NRP1 or NRP2 from plant extracts; H2A.Z forms detected by western blot
T1 sequence: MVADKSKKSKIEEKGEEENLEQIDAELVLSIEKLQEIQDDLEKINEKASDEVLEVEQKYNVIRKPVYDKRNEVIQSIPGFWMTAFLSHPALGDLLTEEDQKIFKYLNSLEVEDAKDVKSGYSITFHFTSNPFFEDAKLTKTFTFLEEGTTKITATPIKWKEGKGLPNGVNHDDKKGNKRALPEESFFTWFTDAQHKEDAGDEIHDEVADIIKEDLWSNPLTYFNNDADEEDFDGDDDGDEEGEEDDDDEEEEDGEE

[2] = target: T2, NRP2-9xMyc (NAP1-RELATED PROTEIN 2, C-terminally 9xMyc-tagged) (Arabidopsis) (UniProt Q8LC68); test: as above
T2 sequence: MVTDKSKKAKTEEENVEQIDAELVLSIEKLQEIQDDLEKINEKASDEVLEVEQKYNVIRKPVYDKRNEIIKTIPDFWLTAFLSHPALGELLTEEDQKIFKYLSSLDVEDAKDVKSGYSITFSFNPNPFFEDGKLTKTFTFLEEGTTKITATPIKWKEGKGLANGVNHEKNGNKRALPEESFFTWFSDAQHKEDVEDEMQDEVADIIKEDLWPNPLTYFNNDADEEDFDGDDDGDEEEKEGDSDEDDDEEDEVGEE

[3] = target: Canonical histone H2A, endogenous (Arabidopsis (endogenous in Columbia-0 background plants)); test: co-IP; anti-H2A or anti-H2A.Z polyclonal antibody coupled to Dynabeads; lysate of 14 days old seedlings of tagged NRP lines in IP buffer (50 mM Tris pH 7.6, 150 mM NaCl, 5 mM MgCl2, 10% glycerol, 0.1% NP-40), overnight at 4 °C; tagged NRP detected by western blot; empty beads as negative control
[4] = target: Histone variant H2A.Z (unmodified), endogenous (Arabidopsis (endogenous in Columbia-0 background plants)); test: as above

- binding [1]: binds
- binding [2]: binds
Molecule: Histone variant H2A.Z (unmodified), endogenous

- binding [3]: binds
- binding [4]: binds
B1: NRP2-9xMyc (NAP1-RELATED PROTEIN 2, C-terminally 9xMyc-tagged) (protein, UniProt Q8LC68 1-255)
chain: T2 sequence

- binding [3]: binds
- binding [4]: binds
B2: 9xMyc-NRP1 (NAP1-RELATED PROTEIN 1, N-terminally 9xMyc-tagged) (protein, UniProt Q9CA59 1-256)
chain: T1 sequence
